Measured values as given in PMC8440562, “MAD2L2 dimerization and TRIP13 control shieldin activity in DNA repair” (Nature Communications, 2021).
No constants are given. Whether binding was seen depends on the method and setting. In cells and extracts the contact can be indirect. These calls come from enrichment with a bait or labelling near it, and not all partners need be listed.

By UniProt entry, the sequences of proteins in these tests, tags left out.
UniProt Q9UI95: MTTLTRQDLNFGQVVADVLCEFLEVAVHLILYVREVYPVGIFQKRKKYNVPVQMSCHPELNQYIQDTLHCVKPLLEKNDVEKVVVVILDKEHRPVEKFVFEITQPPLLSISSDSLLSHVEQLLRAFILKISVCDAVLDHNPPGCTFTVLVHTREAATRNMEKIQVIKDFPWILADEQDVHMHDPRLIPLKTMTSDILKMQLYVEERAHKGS

How the values were obtained:
GFP-MAD2L2^RR = GFP-MAD2L2^RR (UniProt Q9UI95); assay: affinity purification with mass spectrometry; GFP-Trap IP of GFP-MAD2L2^RR from MAD2L2-depleted HeLa against a GFP control; untreated or 3 h after 25 Gy
3xflag-tagged MAD2L2 = 3xflag-tagged MAD2L2 (UniProt Q9UI95); assay: affinity purification with mass spectrometry; pulldown of 3xflag-tagged MAD2L2 from 293T transduced with sgNT or sgTRIP13; n = 3

binding (GFP-MAD2L2^RR) | binding (3xflag-tagged MAD2L2) | Binder
binds |  | SHLD2 (endogenous, HeLa) (protein, UniProt Q86V20 1-835) MSGGSQVHIFWGAPIAPLKITVSEDTASLMSVADPWKKIQLLYSQHSLYLKDEKQHKNLENYKVPESIGSPDLSGHFLANCMNRHVHVKDDFVRSVSETQNIESQKIHSSRLSDITSSNMQICGFKSTVPHFTEEEKYQKLLSENKIRDEQPKHQPDICGKNFNTNLFQLGHKCAAVLDLVCSTEKINIGPEVVQRECVPTEYHEIQNQCLGLFSSNAVDKSRSEAAVRKVSDLKISTDTEFLSIITSSQVAFLAQKKDKRRSPVNKGNVNMETEPKASYGEIRIPEENSIQLDGFTEAYESGQNQAYSLELFSPVCPKTENSRIHINSDKGLEEHTGSQELFSSEDELPPNEIRIELCSSGILCSQLNTFHKSAIKRSCTSEDKVGQSEALSRVLQVAKKMKLISNGGDSAVEMDRRNVSEFKSIKKTSLIKNCDSKSQKYNCLVMVLSPCHVKEINIKFGPNSGSKVPLATVTVIDQSETKKKVFLWRTAAFWAFTVFLGDIILLTDVVIHEDQWIGETVLQSTFSSQLLNLGSYSSIQPEEYSSVVSEVVLQDLLAYVSSKHSYLRDLPPRQPQRVNSIDFVELEHLQPDVLVHAVLRVVDFTILTEAVYSYRGQKQKKVMLTVEQAQDQHYALVLWGPGAAWYPQLQRKKGVVLIKAQISELAFPITASQKIALNAHSSLKSIFSSLPNIVYTGCAKCGLELETDENRIYKQCFSCLPFTMKKIYYRPALMTAIDGRHDVCIRVESKLIEKILLNISADCLNRVIVPSSEITYGMVVADLFHSLLAVSAEPCVLKIQSLFVLDENSYPLQQDFSLLDFYPDIVKHGANARL
 | binds | SHLD2 (endogenous, 293T) (protein, UniProt Q86V20 1-835) MSGGSQVHIFWGAPIAPLKITVSEDTASLMSVADPWKKIQLLYSQHSLYLKDEKQHKNLENYKVPESIGSPDLSGHFLANCMNRHVHVKDDFVRSVSETQNIESQKIHSSRLSDITSSNMQICGFKSTVPHFTEEEKYQKLLSENKIRDEQPKHQPDICGKNFNTNLFQLGHKCAAVLDLVCSTEKINIGPEVVQRECVPTEYHEIQNQCLGLFSSNAVDKSRSEAAVRKVSDLKISTDTEFLSIITSSQVAFLAQKKDKRRSPVNKGNVNMETEPKASYGEIRIPEENSIQLDGFTEAYESGQNQAYSLELFSPVCPKTENSRIHINSDKGLEEHTGSQELFSSEDELPPNEIRIELCSSGILCSQLNTFHKSAIKRSCTSEDKVGQSEALSRVLQVAKKMKLISNGGDSAVEMDRRNVSEFKSIKKTSLIKNCDSKSQKYNCLVMVLSPCHVKEINIKFGPNSGSKVPLATVTVIDQSETKKKVFLWRTAAFWAFTVFLGDIILLTDVVIHEDQWIGETVLQSTFSSQLLNLGSYSSIQPEEYSSVVSEVVLQDLLAYVSSKHSYLRDLPPRQPQRVNSIDFVELEHLQPDVLVHAVLRVVDFTILTEAVYSYRGQKQKKVMLTVEQAQDQHYALVLWGPGAAWYPQLQRKKGVVLIKAQISELAFPITASQKIALNAHSSLKSIFSSLPNIVYTGCAKCGLELETDENRIYKQCFSCLPFTMKKIYYRPALMTAIDGRHDVCIRVESKLIEKILLNISADCLNRVIVPSSEITYGMVVADLFHSLLAVSAEPCVLKIQSLFVLDENSYPLQQDFSLLDFYPDIVKHGANARL
binds |  | SHLD3 (endogenous, HeLa) (protein, UniProt Q6ZNX1 1-250) MTTEVILHYRPCESDPTQLPKIAEKAIQDFPTRPLSRFIPWFPYDGSKLPLRPKRSPPVISEEAAEDVKQYLTISEHDAKSHSYDCTVDLLEFQPSLKKQHLTWSHTLKEQTNSGNLGKQSEKGKQHKRRSWSISLPSNNCTKNVSPLSKKLQDSLKALNLHSLYRARWTIEHTICNSQTLEDIWTKLNQIIRHNELPSCNATIQRHLGQIWVFCDIMYCEYVGSLLKGRLALTGKINLFVHKYGVIFSM
 | binds | SHLD3 (endogenous, 293T) (protein, UniProt Q6ZNX1 1-250) MTTEVILHYRPCESDPTQLPKIAEKAIQDFPTRPLSRFIPWFPYDGSKLPLRPKRSPPVISEEAAEDVKQYLTISEHDAKSHSYDCTVDLLEFQPSLKKQHLTWSHTLKEQTNSGNLGKQSEKGKQHKRRSWSISLPSNNCTKNVSPLSKKLQDSLKALNLHSLYRARWTIEHTICNSQTLEDIWTKLNQIIRHNELPSCNATIQRHLGQIWVFCDIMYCEYVGSLLKGRLALTGKINLFVHKYGVIFSM
 | binds | SHLD1 (endogenous, 293T) (protein, UniProt Q8IYI0 1-205) MAARDATSGSLSEESSALDLPSACDIRDYVLQGPSQEANSEAFSSLEFHSFPYSSDVDPDTSNLNIEQNNSWTAENFWLDPAVKGQSEKEEDDGLRKSLDRFYEMFGHPQPGSANSLSASVCKCLSQKITQLRGQESQKYALRSFQMARVIFNRDGCSVLQRHSRDTHFYPLEEGSTSLDDEKPNPGLSKDITHFLLQQNVMKDL
